Where a chain is given by its changes, count along the chain named. Names and notes keep the numbering of the source. No constants are given. Whether binding was seen depends on the method and setting.
B1: P27W SgrAI (enzyme, UniProt Q9F6L0 2-339)
chain: PFTYSIEATRNLATTERCIQDIRNAWVRNRSTQFQLAQQNMLAYTFGEVIPGFASAGINGMNYRDVIGRPVENAVTEGTHFFRDDFRVDSNAKAKVAGDIFEIVSSAVMWNCAARWNSLMVGEGWRSQPRYSRPTLSPSPRRQVAVLNLPRSFDWVSLLVPESQEVIEEFRAGLRKDGLGLPTSTPDLAVVVLPEEFQNDEMWREEIAGLTRPNQILLSGAYQRLQGRVQPGEISLAVAFKRSLRSDRLYQPLYEANVMQLLLEGKLGAPKVEFEVHTLAPEGTNAFVTYEAASLYGLAEGRSAVHRAIRELYVPPTAADLARRFFAFLNERMELVNG
B2: P27G SgrAI (enzyme, UniProt Q9F6L0 2-339)
chain: B1 chain with W26G

Key:
[1] = target: P27W SgrAI (Streptomyces griseus) (UniProt Q9F6L0); assay: native gel or EMSA; 1 µM SgrAI, 1 nM 32P labeled 18-1 or 18-2 DNA, unlabeled PCP DNA 10-1,000 nM; 20 mM Tris-OAc pH 8.0, 50 mM KOAc, 10 mM Ca(OAc)2, 1 mM DTT, 10% glycerol; 4°C; DNA bound dimers (DBD) to high molecular weight species (HMWS); both purified
[2] = target: P27G SgrAI (Streptomyces griseus) (UniProt Q9F6L0); assay: as above

| Binder | binding [1] | binding [2] |
| --- | --- | --- |
| B1 | no binding (tested: 1 µM enzyme, PCP up to 1,000 nM) |  |
| B2 |  | no binding (tested: 1 µM enzyme, PCP up to 1,000 nM) |

Source: publication PMC2998434, “Domain Swapping in Allosteric Modulation of DNA Specificity” (PLoS Biology, 2010)
